# Measurements published in the supplement of paper PMC8728848.
# The list shows a part of the results.
# B1: Mnn9-2N3 (Aspergillus fumigatus) (protein)
# chain: MAVARRMRRTNPITLLLAAILAIGFFIFVLSPSTTSASPVKAGSASSSSTSQQRREDNAAENPLSPPTKPFFKSQPVRHDGQQAPPPVVQYNLNQLSSTSTSAANGERILILTPMARFVPEYWDNVVKLTYPHELISIGFIIPKNKEGNAALAALEAAIAKTQSGPIDKRFASISILRQDFEPPLQSQDEKERHKISNQKARRESMSRARNSLLFTTLGPATAWVLWLDADIVETPPTLIQDLTAHDHPVLVPNCYQRYYNSEKKKMDVRPYDYNSWIDSSTAQSMAAEMGPDEILLEGYAEMPTYRTLMAHLADTANPNPKKVIELDGVGGTALMVKAEVHRDGAMFPAFPFYHLVETEGFAKMAKRLGYSVYGLPDYFVSRNFFFFFFFFFFG
# Legend:
# Experiment in all cases: glycan array binding signal (z-score within array); higher = stronger binding
# Settings in all cases: glycan notation: IUPAC condensed, linker removed
# Fuc(a1-2)Gal = target: Fuc(a1-2)Gal
# Summary of the method: (§1)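 Columns mapping to the same glycan were averaged after glycan names were converted to IUPAC-condensed notation. The data come from 3228 arrays in the Consortium for Functional Glycomics database, limited to those with an available protein sequence. Binding is reported as a within-array Z-score averaged across arrays of one protein sequence and across linkers.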
# Fuc(a1-2)Gal(b1-3)GalNAc = target: Fuc(a1-2)Gal(b1-3)GalNAc
# Summary of the method: as §1
# [1] = target: Fuc(a1-2)Gal(b1-3)GalNAc(a1-3)[Fuc(a1-2)]Gal(b1-4)Glc
# Summary of the method: as §1
# [2] = target: Fuc(a1-2)Gal(b1-3)GalNAc(a1-3)[Fuc(a1-2)]Gal(b1-4)GlcNAc
# Summary of the method: as §1
# [3] = target: Fuc(a1-2)Gal(b1-3)GalNAc(b1-3)Gal
# Summary of the method: as §1
# [4] = target: Fuc(a1-2)Gal(b1-3)GalNAc(b1-3)Gal(a1-4)Gal(b1-4)Glc
# Summary of the method: as §1
# [5] = target: Fuc(a1-2)Gal(b1-3)GalNAc(b1-4)[Neu5Ac(a2-3)]Gal(b1-4)Glc
# Summary of the method: as §1
# Fuc(a1-2)Gal(b1-3)GlcNAc = target: Fuc(a1-2)Gal(b1-3)GlcNAc
# Summary of the method: as §1
# [6] = target: Fuc(a1-2)Gal(b1-3)GlcNAc(b1-2)Man(a1-3)[Fuc(a1-2)Gal(b1-3)GlcNAc(b1-2)Man(a1-6)]Man(b1-4)GlcNAc(b1-4)GlcNAc
# Summary of the method: as §1
# [7] = target: Fuc(a1-2)Gal(b1-3)GlcNAc(b1-2)Man(a1-3)[Fuc(a1-2)Gal(b1-3)GlcNAc(b1-2)Man(a1-6)]Man(b1-4)GlcNAc(b1-4)[Fuc(a1-6)]GlcNAc
# Summary of the method: as §1
# [8] = target: Fuc(a1-2)Gal(b1-3)GlcNAc(b1-3)Gal(b1-4)Glc
# Summary of the method: as §1
# [9] = target: Fuc(a1-2)Gal(b1-3)GlcNAc(b1-3)GalNAc
# Summary of the method: as §1
# [10] = target: Fuc(a1-2)Gal(b1-3)GlcNAc(b1-3)[Fuc(a1-2)Gal(b1-3)GlcNAc(b1-6)]GalNAc
# Summary of the method: as §1
# [11] = target: Fuc(a1-2)Gal(b1-3)GlcNAc(b1-3)[Gal(b1-4)GlcNAc(b1-6)]Gal(b1-4)Glc
# Summary of the method: as §1
# [12] = target: Fuc(a1-2)Gal(b1-3)GlcNAc(b1-3)[Neu5Ac(a2-6)Gal(b1-4)GlcNAc(b1-6)]Gal(b1-4)Glc
# Summary of the method: as §1
# [13] = target: Fuc(a1-2)Gal(b1-3)GlcNAc6S
# Summary of the method: as §1
# [14] = target: Fuc(a1-2)Gal(b1-3)[Fuc(a1-4)]GlcNAc
# Summary of the method: as §1
# [15] = target: Fuc(a1-2)Gal(b1-3)[Fuc(a1-4)]GlcNAc(b1-2)Man(a1-3)[Fuc(a1-2)Gal(b1-3)[Fuc(a1-4)]GlcNAc(b1-2)Man(a1-3)]Man(b1-4)GlcNAc(b1-4)GlcNAc
# Summary of the method: as §1
# [16] = target: Fuc(a1-2)Gal(b1-3)[Fuc(a1-4)]GlcNAc(b1-2)Man(a1-3)[Fuc(a1-2)Gal(b1-3)[Fuc(a1-4)]GlcNAc(b1-2)Man(a1-6)]Man(b1-4)GlcNAc(b1-4)[Fuc(a1-6)]GlcNAc(b1-4)[Fuc(a1-6)]GlcNAc
# Summary of the method: as §1
# [17] = target: Fuc(a1-2)Gal(b1-3)[Fuc(a1-4)]GlcNAc(b1-3)[Fuc(a1-3)[Gal(b1-4)]GlcNAc(b1-6)]Gal(b1-4)Glc
# Summary of the method: as §1
# [18] = target: Fuc(a1-2)Gal(b1-3)[Fuc(a1-4)]GlcNAc(b1-3)[Gal(b1-4)GlcNAc(b1-6)]Gal(b1-4)Glc
# Summary of the method: as §1
# Fuc(a1-2)Gal(b1-4)Glc = target: Fuc(a1-2)Gal(b1-4)Glc
# Summary of the method: as §1
# Fuc(a1-2)Gal(b1-4)Glc6S = target: Fuc(a1-2)Gal(b1-4)Glc6S
# Summary of the method: as §1
# Fuc(a1-2)Gal(b1-4)GlcNAc = target: Fuc(a1-2)Gal(b1-4)GlcNAc
# Summary of the method: as §1
# [19] = target: Fuc(a1-2)Gal(b1-4)GlcNAc(b1-2)Man
# Summary of the method: as §1
# [20] = target: Fuc(a1-2)Gal(b1-4)GlcNAc(b1-2)Man(a1-3)[Fuc(a1-2)Gal(b1-4)GlcNAc(b1-2)Man(a1-6)]Man(b1-4)GlcNAc(b1-4)GlcNAc
# Summary of the method: as §1
# [21] = target: Fuc(a1-2)Gal(b1-4)GlcNAc(b1-2)Man(a1-3)[Fuc(a1-2)Gal(b1-4)GlcNAc(b1-2)Man(a1-6)]Man(b1-4)GlcNAc(b1-4)[Fuc(a1-6)]GlcNAc
# Summary of the method: as §1
# [22] = target: Fuc(a1-2)Gal(b1-4)GlcNAc(b1-2)[Fuc(a1-2)Gal(b1-4)GlcNAc(b1-4)]Man(a1-3)[Fuc(a1-2)Gal(b1-4)GlcNAc(b1-2)Man(a1-6)]Man(b1-4)GlcNAc(b1-4)GlcNAc
# Summary of the method: as §1
# [23] = target: Fuc(a1-2)Gal(b1-4)GlcNAc(b1-3)Gal(b1-4)GlcNAc
# Summary of the method: as §1
# [24] = target: Fuc(a1-2)Gal(b1-4)GlcNAc(b1-3)Gal(b1-4)GlcNAc(b1-2)Man(a1-3)[Fuc(a1-2)Gal(b1-4)GlcNAc(b1-3)Gal(b1-4)GlcNAc(b1-2)Man(a1-6)]Man(b1-4)GlcNAc(b1-4)GlcNAc
# Summary of the method: as §1
binder,measurement,setting,value
B1,glycan array binding signal (z-score),Fuc(a1-2)Gal,-0.532
same,glycan array binding signal (z-score),Fuc(a1-2)Gal(b1-3)GalNAc,0.184
same,glycan array binding signal (z-score),[1],-0.385
same,glycan array binding signal (z-score),[2],-0.911
same,glycan array binding signal (z-score),[3],-0.413
same,glycan array binding signal (z-score),[4],-0.365
same,glycan array binding signal (z-score),[5],0.057
same,glycan array binding signal (z-score),Fuc(a1-2)Gal(b1-3)GlcNAc,0.042
same,glycan array binding signal (z-score),[6],-1.81
same,glycan array binding signal (z-score),[7],-0.531
same,glycan array binding signal (z-score),[8],-0.226
same,glycan array binding signal (z-score),[9],1.17
same,glycan array binding signal (z-score),[10],-0.179
same,glycan array binding signal (z-score),[11],0.048
same,glycan array binding signal (z-score),[12],1.56
same,glycan array binding signal (z-score),[13],-0.49
same,glycan array binding signal (z-score),[14],0.843
same,glycan array binding signal (z-score),[15],0.745
same,glycan array binding signal (z-score),[16],1.08
same,glycan array binding signal (z-score),[17],0.126
same,glycan array binding signal (z-score),[18],-0.504
same,glycan array binding signal (z-score),Fuc(a1-2)Gal(b1-4)Glc,-0.089
same,glycan array binding signal (z-score),Fuc(a1-2)Gal(b1-4)Glc6S,-0.499
same,glycan array binding signal (z-score),Fuc(a1-2)Gal(b1-4)GlcNAc,-0.527
same,glycan array binding signal (z-score),[19],-1.25
same,glycan array binding signal (z-score),[20],-0.758
same,glycan array binding signal (z-score),[21],1.86
same,glycan array binding signal (z-score),[22],0.208
same,glycan array binding signal (z-score),[23],0.5
same,glycan array binding signal (z-score),[24],0.93

# Some of the entries above, set out differently.
binder	measurement	setting	value
B1	glycan array binding signal (z-score)	Fuc(a1-2)Gal(b1-4)GlcNAc	-0.527
same	glycan array binding signal (z-score)	[20]	-0.758
